# According to paper PMC3543444:
# Protein sequences, listed by entry. Tags and fused reporters are not part of them.
# UniProt P50207: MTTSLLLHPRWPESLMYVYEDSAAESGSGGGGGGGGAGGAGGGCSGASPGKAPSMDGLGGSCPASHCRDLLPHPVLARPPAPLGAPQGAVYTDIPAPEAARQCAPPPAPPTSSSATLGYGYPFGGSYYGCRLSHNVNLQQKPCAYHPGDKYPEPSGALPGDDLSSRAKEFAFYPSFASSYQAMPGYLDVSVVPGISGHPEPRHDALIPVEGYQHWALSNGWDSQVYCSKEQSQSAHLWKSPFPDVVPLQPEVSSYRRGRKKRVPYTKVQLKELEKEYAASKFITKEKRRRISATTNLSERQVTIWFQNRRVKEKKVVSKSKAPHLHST
# UniProt P09631: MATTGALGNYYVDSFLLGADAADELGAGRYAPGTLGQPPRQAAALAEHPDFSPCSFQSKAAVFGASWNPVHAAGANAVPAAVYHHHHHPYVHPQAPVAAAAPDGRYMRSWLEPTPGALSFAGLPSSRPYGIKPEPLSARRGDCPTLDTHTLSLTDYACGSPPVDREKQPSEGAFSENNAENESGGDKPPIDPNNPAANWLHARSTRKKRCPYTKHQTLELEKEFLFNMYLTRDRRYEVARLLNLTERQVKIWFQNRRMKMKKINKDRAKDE
# UniProt Q13619: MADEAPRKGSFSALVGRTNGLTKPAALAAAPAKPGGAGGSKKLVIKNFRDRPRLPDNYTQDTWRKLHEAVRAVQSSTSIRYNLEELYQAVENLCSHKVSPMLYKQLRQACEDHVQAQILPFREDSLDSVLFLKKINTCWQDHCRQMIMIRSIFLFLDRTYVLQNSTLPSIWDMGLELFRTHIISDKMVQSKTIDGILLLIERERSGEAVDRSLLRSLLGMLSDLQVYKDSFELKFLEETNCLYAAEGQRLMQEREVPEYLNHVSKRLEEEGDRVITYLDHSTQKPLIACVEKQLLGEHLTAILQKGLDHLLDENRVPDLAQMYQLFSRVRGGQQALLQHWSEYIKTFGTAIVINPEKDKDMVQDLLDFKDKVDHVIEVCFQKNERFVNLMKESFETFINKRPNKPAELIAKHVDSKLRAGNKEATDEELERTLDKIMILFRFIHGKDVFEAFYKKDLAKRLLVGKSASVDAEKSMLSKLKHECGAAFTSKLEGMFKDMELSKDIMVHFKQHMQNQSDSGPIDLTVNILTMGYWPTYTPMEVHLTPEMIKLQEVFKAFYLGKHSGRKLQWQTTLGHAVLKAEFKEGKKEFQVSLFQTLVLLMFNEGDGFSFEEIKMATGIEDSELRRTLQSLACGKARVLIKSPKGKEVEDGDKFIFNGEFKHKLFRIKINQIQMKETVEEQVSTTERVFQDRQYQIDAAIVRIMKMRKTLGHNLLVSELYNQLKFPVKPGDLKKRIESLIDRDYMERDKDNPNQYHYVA
# UniProt Q16531: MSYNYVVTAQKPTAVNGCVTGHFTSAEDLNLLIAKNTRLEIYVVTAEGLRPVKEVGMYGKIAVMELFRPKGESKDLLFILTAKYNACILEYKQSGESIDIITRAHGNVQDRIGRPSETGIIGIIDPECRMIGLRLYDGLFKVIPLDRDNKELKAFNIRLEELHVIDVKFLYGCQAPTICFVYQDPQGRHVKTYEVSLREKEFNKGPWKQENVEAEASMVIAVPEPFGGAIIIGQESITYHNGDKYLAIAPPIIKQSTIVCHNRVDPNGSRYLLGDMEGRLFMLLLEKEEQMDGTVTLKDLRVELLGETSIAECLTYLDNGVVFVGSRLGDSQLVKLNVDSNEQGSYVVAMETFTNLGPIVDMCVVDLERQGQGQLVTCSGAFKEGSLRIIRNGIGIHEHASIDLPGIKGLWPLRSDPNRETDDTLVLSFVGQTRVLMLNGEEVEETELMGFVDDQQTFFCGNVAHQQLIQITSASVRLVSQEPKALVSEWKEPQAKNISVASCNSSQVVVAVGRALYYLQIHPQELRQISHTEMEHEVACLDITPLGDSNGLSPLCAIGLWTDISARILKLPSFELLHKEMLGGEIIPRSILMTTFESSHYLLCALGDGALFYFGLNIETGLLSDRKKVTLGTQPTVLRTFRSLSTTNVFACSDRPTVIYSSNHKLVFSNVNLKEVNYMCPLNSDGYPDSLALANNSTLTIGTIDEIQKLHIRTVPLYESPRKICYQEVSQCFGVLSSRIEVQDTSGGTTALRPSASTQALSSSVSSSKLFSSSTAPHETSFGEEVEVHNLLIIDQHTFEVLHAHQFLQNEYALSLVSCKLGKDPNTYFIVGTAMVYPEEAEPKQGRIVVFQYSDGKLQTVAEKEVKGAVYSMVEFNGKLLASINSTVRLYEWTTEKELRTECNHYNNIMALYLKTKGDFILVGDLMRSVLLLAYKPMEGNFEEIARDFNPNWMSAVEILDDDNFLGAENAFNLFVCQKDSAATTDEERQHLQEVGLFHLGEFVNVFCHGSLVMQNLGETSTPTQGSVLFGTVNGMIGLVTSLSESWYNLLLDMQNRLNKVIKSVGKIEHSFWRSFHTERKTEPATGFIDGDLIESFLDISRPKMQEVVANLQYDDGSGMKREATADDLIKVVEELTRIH
# Results are given in words; binding and its absence hold for the method and conditions named. In cells and extracts the contact can be indirect. Some entries that bind do so weakly or less than the wild type.
# Legend:
# [1] = target: Flag-Hoxc13 (HEK-293) (UniProt P50207); experiment: co-IP; Flag-Hox derivatives transfected in HEK-293; extract in RIPA buffer (0.5% Triton X-100, 20 mM Hepes pH 8.0, 150 mM NaCl); immunoprecipitation with anti-Flag antibody; immunoblot with anti-Cul4a, anti-Ddb1 and anti-Roc1
# [2] = target: Flag-Hoxa9 (HEK-293) (UniProt P09631); experiment: as above
Substance,binding [1],binding [2]
endogenous Cul4a (HEK-293) (from UniProt Q13619 1-759),no binding,binds
endogenous Ddb1 (HEK-293) (from UniProt Q16531 1-1140),no binding,binds
